Measured values from the supplement of paper PMC6078165.
Values are relative to the signal before dosing, not to a vehicle control; the signal also falls without drug.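 Labels refer to human fibroblasts, largely primary: uterine (C12385, HUF), lung (H6013), bone (Hs27A), adrenal (HADF), skin (WS1), plus mammary HMF and breast cancer-associated Hs343T. Cancer lines are basal-like or mesenchymal-like triple-negative breast cancer. The paper counts as hits responses shifting over 3x the replicate standard deviation. The tissue of the other fibroblasts is not given here.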

System: MDAMB436
Test: relative JC-1 red fluorescence (viability) vs pre-drug, coculture with fibroblast (fraction); higher = more viable cancer cells
Details: 0.1 µM
Procedure: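 JC-1 labelled TNBC cells cocultured 1:1 (1,500 cells each) with CellTrace Violet stained primary or stromal fibroblasts in 384-well plates in FluoroBrite medium, treated with one of 42 anticancer drugs at 0.1, 1, 10 or 100 uM. JC-1 red fluorescence (mitochondrial integrity in cancer cells only) was read by plate reader every 8 h for 72 h. Values are normalised to each well's pre-drug value. The stock of one drug was tenfold lower, so its dose labels may be too high.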

O=NN(CCCl)C(=O)NCCCl [Carmustine]
relative JC-1 red fluorescence
Details | 8 h | 16 h | 24 h | 32 h | 40 h | 48 h | 56 h | 64 h | 72 h
coculture fibroblast: C12385 | 0.804 | 0.693 | 0.654 | 0.577 | 0.526 | 0.503 | 0.478 | 0.464 | 0.463
coculture fibroblast: H6013 | 0.827 | 0.722 | 0.665 | 0.634 | 0.5894 | 0.59 | 0.55 | 0.525 | 0.481
coculture fibroblast: H6019 | 0.7524 | 0.6432 | 0.648 | 0.585 | 0.549 | 0.536 | 0.501 | 0.477 | 0.449
coculture fibroblast: H6076 | 0.7889 | 0.691 | 0.66 | 0.618 | 0.596 | 0.568 | 0.562 | 0.564 | 0.548
coculture fibroblast: H6231 | 0.8 | 0.697 | 0.644 | 0.563 | 0.525 | 0.487 | 0.463 | 0.43 | 0.398
coculture fibroblast: HADF | 0.843 | 0.786 | 0.701 | 0.668 | 0.632 | 0.634 | 0.586 | 0.566 | 0.524
coculture fibroblast: HCFa | 0.803 | 0.709 | 0.648 | 0.618 | 0.571 | 0.57 | 0.506 | 0.4908 | 0.4347
coculture fibroblast: HCPF | 0.779 | 0.69 | 0.638 | 0.59 | 0.561 | 0.526 | 0.5 | 0.48 | 0.463
coculture fibroblast: HHSteC | 0.834 | 0.778 | 0.708 | 0.675 | 0.642 | 0.647 | 0.583 | 0.554 | 0.494
coculture fibroblast: HMF | 0.796 | 0.703 | 0.636 | 0.596 | 0.576 | 0.539 | 0.538 | 0.524 | 0.504
coculture fibroblast: HPFa | 0.871 | 0.81 | 0.759 | 0.708 | 0.675 | 0.659 | 0.573 | 0.531 | 0.442
coculture fibroblast: HUF | 0.842 | 0.735 | 0.703 | 0.626 | 0.568 | 0.536 | 0.503 | 0.484 | 0.478
coculture fibroblast: Hs5 | 0.792 | 0.735 | 0.712 | 0.663 | 0.647 | 0.612 | 0.612 | 0.57 | 0.551
coculture fibroblast: Hs27A | 0.7603 | 0.684 | 0.6445 | 0.6132 | 0.592 | 0.638 | 0.551 | 0.53057 | 0.4634
coculture fibroblast: Hs343T | 0.76 | 0.672 | 0.601 | 0.568 | 0.539 | 0.509 | 0.499 | 0.481 | 0.476
coculture fibroblast: WS1 | 0.778 | 0.688 | 0.63 | 0.552 | 0.5 | 0.477 | 0.451 | 0.42 | 0.403
